From US20230146870A1, “METHOD TO QUANTIFY AFFINITY AND SELECTIVITY OF SMALL MOLECULES FOR PROTEINS IN LIVING CELLS” (Ohio State Innovation Foundation, priority 2021, published 2023)

Test system: HEK293 cells (parental or overexpressing full-length PKCγ-EGFP)
Test: Cellular fluorescence of probe 33 with and without verapamil by flow cytometry (efflux)
Type: cell-based
Conditions: for enhancement of cellular blue fluorescence by verapamil: HEK293 overexpressing PKCγ-EGFP; for enhancement of intracellular fluorescence by verapamil: parental HEK293, 33 at 1 μM, 1 h

CC1=C[C@H]2[C@@]3(O)[C@H](C)[C@@H](O)[C@]4(OC(=O)N(C)CCCCCCCCCCCCN(C)C(=O)c5cc6cc(F)c(O)c(F)c6oc5=O)[C@H]([C@@H]3C=C(CO)C[C@]2(O)C1=O)C4(C)C [probe 33, (1aR,1bS,4aR,7aS,7bS,8R,9R,9aS)-4a,7b,9-trihydroxy-3-(hydroxymethyl)-1,1,6,8-tetramethyl-5-oxo-1,1a,1b,4,4a,5,7a,7b,8,9-decahydro-9aH-cyclopropa[3,4]benzo[1,2-e]azulen-9a-yl (12-(6,8-difluoro-7-hydroxy-N-methyl-2-oxo-2H-chromene-3-carboxamido)dodecyl)(methyl)carbamate]
enhancement of cellular blue fluorescence by verapamil (verapamil 25 μM): 2.0 fold
enhancement of cellular blue fluorescence by verapamil (verapamil 100 μM): 3.3 fold
enhancement of intracellular fluorescence by verapamil (verapamil 25 μM): 2.8 fold
enhancement of intracellular fluorescence by verapamil (verapamil 100 μM): 3.5 fold
blue fluorescence of cells over-expressing PKCγ-EGFP vs cells with no expression (verapamil 100 μM): 2.7 fold
